# Measurements as given in the supplement of paper PMC3334620.
# In all, about 33,000 sequences were measured (“E-score (-0.5 to 0.5)”: median about -0.0014, highest 2% from about 0.25 on). The list shows a part of the results.
# Molecular target: T1, Cad1 (UniProt P24813)
# T1 sequence: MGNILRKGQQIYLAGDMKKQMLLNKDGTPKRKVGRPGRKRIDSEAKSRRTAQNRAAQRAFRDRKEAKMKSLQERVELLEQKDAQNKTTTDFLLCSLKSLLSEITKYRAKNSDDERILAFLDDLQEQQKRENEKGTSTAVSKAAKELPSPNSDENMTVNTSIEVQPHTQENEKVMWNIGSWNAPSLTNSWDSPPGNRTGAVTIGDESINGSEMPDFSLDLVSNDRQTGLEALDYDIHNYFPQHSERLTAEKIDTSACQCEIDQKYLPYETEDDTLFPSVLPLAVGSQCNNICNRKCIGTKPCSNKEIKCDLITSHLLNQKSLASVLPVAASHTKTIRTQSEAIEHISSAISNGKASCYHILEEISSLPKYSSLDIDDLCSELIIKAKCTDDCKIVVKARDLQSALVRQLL
# Experiment: PBM E-score (8-mer binding enrichment) (E-score (-0.5 to 0.5)); higher = stronger / more preferred TF binding
# Conditions: protein concentration: 100 nM; construct: GST-full length
# Procedure, shortened: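 Bound GST-tagged yeast transcription factors, applied at about 100-200 nM to double-stranded universal all-10-mer Agilent arrays, were detected with fluorescent anti-GST. Scans were normalised with masliner. A modified Wilcoxon-Mann-Whitney statistic, the E-score, was assigned to each ungapped eight-base word pooled with its reverse complement by the Universal PBM Analysis Suite.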
row,Sequence,PBM E-score
1,AAGAGTAA,0.068
2,ATTCCTCG,0.113
3,AACCGTAT,-0.178
4,CTATAGTC,-0.18
5,CAACACCG,-0.0149
6,CAGAGTCA,-0.129
7,TATTCCCA,0.0149
8,AGATGGTC,-0.169
9,TATAGGGA,-0.0721
10,CGGATCCG,0.0808
11,GGCCCTAA,0.0115
12,CTAGTCAG,0.0283
13,GCCGCGGA,-0.00234
14,CGGGCAGC,-0.0301
15,CACCCGCG,0.126
16,AGCCGTTA,0.114
17,GCGGGTCA,0.115
18,GAGACTAA,0.00477
19,ACATACCT,-0.146
20,GCGATTCC,0.0222
21,GTACTGAC,-0.134
22,AAATTTGA,0.325
23,CTTACAAG,0.0333
24,AACGCTCT,-0.0819
25,AGGAGGTC,-0.228

# Quoted from the listing:
# For PBM E-score, CTTACAAG shows 0.0333
# For PBM E-score, ATTCCTCG shows 0.113
# For PBM E-score, AAGAGTAA shows 0.068
# For PBM E-score, CTATAGTC shows -0.18
# For PBM E-score, AACCGTAT shows -0.178

# (next part)

row,Sequence,PBM E-score
1,CAGCCCAG,-0.246
2,CCCCGTTA,-0.157
3,CGATCTTC,0.00674
4,AACTACGG,-0.0862
5,AACGGAAA,0.219
6,CAGGCCCG,-0.236
7,ACATACTG,0.0301
8,CACTCACG,-0.0909
9,ATAATACG,0.186
10,CGGTGCTC,-0.0528
11,GTCCAGCA,-0.0579
12,AGTCTCGA,0.0451
13,CTTCTCCC,-0.324
14,AGAAATCG,-0.00121
15,GACTCATA,-0.0185
16,CGGCGCTC,0.0522
17,TCGCGTAA,0.19
18,CTGATACC,-0.15
19,AAAGATAG,0.00786
20,CTAATGAA,0.146
21,AACGCATC,0.0105
22,AAGTCTCA,-0.181
23,ACTAACAC,0.184
24,AGTTAAGC,0.0381
25,CGCGAAAA,0.246

row,Sequence,PBM E-score
1,CTTGGAGA,-0.0247
2,CCTAATCG,0.168
3,CTTTTGAA,0.0525
4,ACGGAAGA,7e-05
5,ATACACCG,0.13
6,ATATTATA,0.164
7,ATTTAGAA,-0.0536
8,CCGTACCG,-0.151
9,CGGCCTGA,-0.214
10,AAGCGGCC,-0.164
11,CTAGACCA,0.00762
12,CTGGTCAA,-0.0689
13,CACGAGCG,-0.0893
14,GGACCCAC,-0.0599
15,CAGTGTAA,0.081
16,GGCACAAA,-0.169
17,GACAAAGA,0.276
18,CTACGACC,-0.156
19,AGCTCCGG,-0.115
20,CACTCCTC,-0.146
21,GAGGATGA,0.0761
22,AGACCATC,-0.0573
23,CAGGTCTA,0.0481
24,AGGAGCTC,-0.165
25,AACCATTA,0.166

# Fetched one by one from the entries so far, 7 records:
row,Sequence,PBM E-score
7,ATTTAGAA,-0.0536
24,AGGAGCTC,-0.165
16,GGCACAAA,-0.169
18,CTACGACC,-0.156
23,CAGGTCTA,0.0481
17,GACAAAGA,0.276
25,AACCATTA,0.166

# The results go on.

row,Sequence,PBM E-score
1,CCGGTCTA,-0.244
2,GGAATAGA,-0.00051
3,CAGAGAAG,-0.187
4,CGACCGAA,-0.105
5,GAAGTTGA,-0.00863
6,AAGGGTAT,0.0311
7,AGAGTGCG,-0.0274
8,AGATCTAA,0.138
9,GCCCGTAA,0.0144
10,GTTATTTA,0.153
11,AAAGCTGA,0.0368
12,AGCTTAGC,0.102
13,AGGTTTCC,-0.0162
14,CAATCGAC,-0.00241
15,ACGAGAGT,-0.122
16,AGCGTTAG,0.0392
17,GTGAAAAA,0.121
18,CCCTTAGG,-0.13
19,AGAGGAAC,-0.0542
20,CTCCTCCA,-0.143
21,ATGAATAG,0.0469
22,CAGGCGTC,-0.0605
23,ACTGACAG,0.0822
24,ATGAACAG,-0.0207
25,ATGCCGTG,0.0808

row,Sequence,PBM E-score
1,AAGCTAGC,0.0693
2,AGGCTGAC,0.145
3,CCATAATC,0.0845
4,ATGGGGAC,-0.0612
5,ACCTCTCA,-0.0819
6,CTACTAAC,0.109
7,GCCGCCGC,-0.0983
8,ATGCCGAC,0.0141
9,ACTACCCG,-0.0883
10,AAAGCAGC,0.17
11,CTCATCGA,0.0528
12,AACGCCAC,0.0935
13,CATGATTA,0.216
14,CAAAGACG,-0.0208
15,ACGAGTTC,0.103
16,CTACCTTC,-0.0206
17,CAGCAATG,-0.196
18,AGACGGTG,-0.0762
19,CAAGACAG,-0.0259
20,GGCCAACA,-0.0831
21,ACACAGAT,0.0606
22,CCCAGCGA,-0.0573
23,CCACTAGC,-0.269
24,AATTCATG,0.24
25,CCACAAGG,-0.179

row,Sequence,PBM E-score
1,GCGGATCC,-0.093
2,AGGTGAAA,0.0145
3,ACTCACAA,0.0634
4,CAATGCCC,-0.149
5,CACCGATC,0.0298
6,GCGACGAC,-0.264
7,AGAGTGGA,-0.0214
8,GAACGCGC,0.0894
9,ACCACAAT,-0.0451
10,CCATAGAG,-0.0455
11,GCCGTTCA,-0.0703
12,GAGACCTA,-0.118
13,ATGCATGC,0.216
14,TCGACCCA,0.0438
15,AACGGAAC,0.158
16,AGCAATAA,0.092
17,GACTTGCA,0.118
18,AGGCAAAT,0.0439
19,AAAAACAG,-0.0766
20,CTCGCTAA,0.0053
21,ATTCAAAT,0.229
22,AGATCGCT,0.0393
23,GAGCGTTA,0.138
24,ATTGGCAC,0.0636
25,CTACGGAC,-0.188

row,Sequence,PBM E-score
1,GATACGGA,0.0795
2,TAAGATCA,0.0547
3,GCAAGCCA,-0.145
4,GAATATGC,0.047
5,AGTTGTAT,0.0942
6,ATTACGGG,-0.0551
7,ACCCCGCA,0.0794
8,CCTGTTGA,0.0889
9,AGAGTACA,-0.0606
10,AGACACCA,0.0437
11,GAGCTATA,-0.189
12,AGTTATCA,0.0481
13,CGCCTCCG,-0.276
14,ATTCTCTG,-0.0244
15,ACCCGAGC,-0.028
16,TGTATCAA,0.153
17,AGAACTAT,0.0661
18,GGTGTCAC,0.115
19,ATACCGGG,0.107
20,CTACTGAC,-0.00067
21,AGTGCTGG,0.0389
22,GCCAGACA,0.104
23,CGGGAAGA,0.0795
24,ATGTTATC,0.144
25,ACAAACTG,-0.0705

row,Sequence,PBM E-score
1,AGGCGAGG,-0.157
2,AGCTTACG,0.248
3,GAGACAGC,0.0272
4,CCCACCTC,-0.154
5,GACCCTCA,-0.28
6,GTATAAGA,-0.0708
7,GCCGCTGA,0.103
8,AATGCTGA,0.137
9,TGCCCGCA,0.067
10,CGAAGTCC,-0.116
11,ATATACGC,-0.0916
12,TCCACAGA,0.11
13,GAACTCCA,0.102
14,CGAACTGA,-0.17
15,CGGAGACG,0.137
16,CGCCACTA,-0.0319
17,ATCGTGCG,0.325
18,CGCCTAAG,-0.154
19,CCAAGTCG,0.0392
20,AATTATGA,0.297
21,GCAGATAA,-0.0236
22,AGATCCAC,-0.0172
23,AATGTGAC,0.221
24,GAGCGGAA,0.174
25,CACGAGGG,-0.227

row,Sequence,PBM E-score
1,AGGACTAA,0.0814
2,AAAGTCAT,0.074
3,AGCCATTG,0.102
4,AGCAAGGA,-0.22
5,ACAGGTAG,-0.119
6,CACCCGTC,-0.0451
7,CAAGTGGG,-0.0476
8,AAACGCGC,0.00737
9,CGTGTGCA,0.038
10,AACAACAA,0.058
11,CAACGGCC,-0.00472
12,AAGTGTAA,-0.0374
13,ACTCACTG,0.0609
14,ATCTGCTC,0.0186
15,AAACACAT,0.111
16,AGGGCCCT,-0.115
17,TACTGCTA,-0.0546
18,AAATGACT,0.0638
19,GCAGGTTA,-0.217
